# Measured values: PubChem BioAssay AID504327 (National Center for Advancing Translational Sciences (NCATS), 2011)
# Protein sequences, listed by entry. Tags and fused reporters are not part of them.
# UniProt Q92830, whole entry, looked up: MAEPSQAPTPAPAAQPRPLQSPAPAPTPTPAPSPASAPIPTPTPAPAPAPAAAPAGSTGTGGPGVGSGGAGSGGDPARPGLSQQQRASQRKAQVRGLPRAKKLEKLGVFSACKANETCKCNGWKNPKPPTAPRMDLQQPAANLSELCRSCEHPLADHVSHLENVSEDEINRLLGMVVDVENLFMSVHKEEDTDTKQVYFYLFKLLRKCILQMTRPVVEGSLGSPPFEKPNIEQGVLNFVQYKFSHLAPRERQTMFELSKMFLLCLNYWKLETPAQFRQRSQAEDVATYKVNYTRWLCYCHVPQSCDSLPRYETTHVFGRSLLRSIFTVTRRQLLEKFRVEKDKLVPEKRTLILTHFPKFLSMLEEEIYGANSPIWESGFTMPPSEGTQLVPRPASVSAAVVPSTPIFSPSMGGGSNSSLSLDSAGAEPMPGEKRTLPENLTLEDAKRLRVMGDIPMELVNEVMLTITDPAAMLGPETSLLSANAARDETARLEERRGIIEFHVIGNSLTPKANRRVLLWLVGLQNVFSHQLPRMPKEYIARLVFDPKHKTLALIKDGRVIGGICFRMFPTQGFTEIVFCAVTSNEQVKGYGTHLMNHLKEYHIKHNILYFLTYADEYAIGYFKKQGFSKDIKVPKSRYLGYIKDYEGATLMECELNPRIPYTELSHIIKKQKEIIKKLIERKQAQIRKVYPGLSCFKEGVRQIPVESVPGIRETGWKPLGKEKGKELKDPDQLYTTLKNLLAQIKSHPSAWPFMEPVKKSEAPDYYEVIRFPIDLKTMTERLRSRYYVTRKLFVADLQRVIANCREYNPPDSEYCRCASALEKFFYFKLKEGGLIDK
# Where “and” joins values, the source holds several entries; their conditions need not be identical. Equal entries are not always repeated. Screen size: about 390,000 compounds; about 820 (0.21%) were called active. Inconclusive results, whose numbers are uncertain, are shown with a selection of clear calls. Calls follow the shape of the dose curve; as a rule, active = well fitted inhibition curve with a large enough effect; inconclusive = small, poorly fitted or top-dose-only effect, or another doubt; inactive = no such curve, though single readings can be large or run the other way. Where the call is inconclusive, the potency comes from a doubtful curve fit.
# Biological target: Histone acetyltransferase KAT2A (Homo sapiens) (UniProt Q92830)
# Experiment: qHTS Assay for Inhibitors of GCN5L2
# Conditions: GCN5L2 HAT assay, ThioGlo1 CoA-SH fluorescence; activity change, negative = inhibition: at 58.9 µM (top of the series) unless noted
# Procedure, shortened: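 Fluorescence readout, Ex340nm/Em540nm: ThioGlo1 (50uM final) reacts with free CoA thiol released as 20nM GCN5L2 acetylates H3(1-25) peptide (75uM) using acetyl-CoA (70uM). Compound and enzyme sat 15 min beforehand; 20 min room-temperature reaction.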
# % is scaled to controls: 0 for no effect and ±100 for the full control effect; potency is read from the fitted curve at half-maximal effect.
Compound,Potency,"activity change, negative = inhibition"
COCCCN1C(=O)C(O)=C(C(=O)c2ccc(C)o2)C1c1cccc(Br)c1 (stereo unspecified),"inconclusive: 8.91 µM [inhibitor, partial curve, poor fit]",
O=c1oc2c(-c3ccc([N+](=O)[O-])cc3)cc(O)cc2s1,"inconclusive: 22.4 µM [inhibitor, single point]",
Cn1c(=O)[nH]c(=O)c2c1nc(Br)n2CC(O)COc1ccccc1 (stereo unspecified),,inconclusive: -115% [inhibitor] [at 0.501 µM]
Cc1cc(C)cc(S(=O)(=O)c2cn(C)c3cc(N4CCN(C)CC4)c(F)cc3c2=O)c1,,inactive: -17.4%
O=C(O)Cc1c(-c2ccccc2Cl)c2cc(Br)ccc2[nH]c1=O,"inconclusive: 0.562 µM [inhibitor, full curve, poor fit]",
COc1cc(OC)cc(C(=O)OCC(=O)NCc2ccco2)c1,,inactive: -23.7%
Cc1ccc(CSCC2Nc3ccc(C(=O)N4CCN(c5cccc(C)c5)C(C)C4)cc3NC2=O)cc1 (stereo unspecified),"inconclusive: 39.8 µM [inhibitor, single point]",
CCCc1cc(=O)oc2c(C)c(O)c(CN3CCCCC3)cc12,"inconclusive: 25.1 µM [inhibitor, partial curve]",
CCOc1cc(C2C(C#N)=C(N)Oc3n[nH]c(-c4ccccc4)c32)ccc1O (stereo unspecified),"inconclusive: 39.8 µM [inhibitor, single point]",
COc1cccc(CN2c3ccc(Br)cc3C(=O)CS2(=O)=O)c1,"inconclusive: 20 µM [inhibitor, single point]",
Cc1cc(NC(=S)N(Cc2ccc(Cl)cc2)Cc2ccc(C(=O)O)cc2)ccc1Cl,"inconclusive: 39.8 µM [inhibitor, single point]",
CC(C)c1ccc(Cn2ccc3c4c(N)nc(NC5CC5)nc4ccc32)cc1,,inconclusive: -30.1% [inhibitor] [at 0.501 µM]
O=[N+]([O-])c1cccc(S(=O)(=O)Nc2ccc(S(=O)(=O)NCC3CCCO3)cc2)c1 (stereo unspecified),"inconclusive: 0.891 µM [inhibitor, single point]",
O=C(COC(=O)c1ccccn1)Nc1ccccc1OC(F)F,,inactive: 0.795%
O=C(Nc1nc2c(F)c(F)c(F)cc2s1)c1ccco1,,inactive: -8.35%
COc1cc(OC)c(C2CC(=O)N3CN(C)CSC3=C2C#N)cc1OC (stereo unspecified),"inconclusive: 31.6 µM [inhibitor, single point]",
CSc1ccc(-c2cc(=O)c3ccccc3o2)cc1,"inconclusive: 39.8 µM [inhibitor, single point]",
Cc1cc(CN2CCN(CC(=O)Nc3cc(C(F)(F)F)ccc3-n3cncn3)CC2)no1,,inactive: 3.35%
CCOC(=O)c1nn(-c2ccc(OC)cc2)c(=O)c2c(N)scc12,"inactive and inconclusive: 22.4 µM [inhibitor, single point]",
Cc1cc(C)c2nc(N3C(=O)C(O)=C(C(=O)c4ccco4)C3c3cccc(O)c3)sc2c1 (stereo unspecified),"inconclusive: 35.5 µM [inhibitor, single point]",
c1ccc(-c2nn3c(Cn4cnc5ccccc54)nnc3s2)cc1,"inconclusive: 39.8 µM [inhibitor, single point]",

Compound,Potency,"activity change, negative = inhibition"
Cc1cccc(N(CC(=O)N2CCCCCC2)S(C)(=O)=O)c1,"inconclusive: 15.8 µM [inhibitor, partial curve]",
Cc1cc(/C=N/n2cnnc2)c(C)n1-c1ccc(OCc2ccccc2F)cc1,"inconclusive: 0.708 µM [inhibitor, full curve, poor fit]",
COc1ccc(Nc2nc(-c3ccccc3)c3ccccc3n2)cc1,"inconclusive: 39.8 µM [inhibitor, single point]",
Cc1cc(Br)cc2c1N(Cc1ccccc1OC(C)C)C(=O)C2=O,"inconclusive: 35.5 µM [inhibitor, partial curve]",
CCCCc1cc(=O)oc2c(CN3CCCC3)c(O)ccc12,"inconclusive: 35.5 µM [inhibitor, single point]",
COc1ccc(/C=C2\SC(=S)N(CCC(=O)Nc3ccc(C(=O)O)cc3)C2=O)cc1OC,,inactive: -5.7%
CC(C)(C)CN1CCNC(=O)C1CC(=O)NCc1cccc(-n2cccn2)c1 (stereo unspecified),"inconclusive: 39.8 µM [inhibitor, single point]",
CC[C@H](C)[C@H]1O[C@]2(CC[C@@H]1C)C[C@@H]1C[C@@H](C/C=C(\C)[C@H](O[C@@H]3C[C@H](OC)[C@H](O[C@@H]4C[C@H](OC)[C@@H](O)[C@H](C)O4)[C@H](C)O3)[C@@H](C)/C=C/C=C3\CO[C@@H]4[C@H](O)C(C)=C[C@@H](C(=O)O1)[C@]34O)O2,"inconclusive: 3.98 µM [inhibitor, full curve]",
COc1ccc(-c2cn3c(C)c(C(=O)N4CCc5ccccc5C4)sc3n2)cc1,"inconclusive: 3.55 µM [inhibitor, partial curve]",
O=C(O)c1ccccc1Sc1ccccc1S(=O)(=O)NC1CCCCC1,,inactive: -7.08%
CCOC(=O)C1CCCN(C(=O)c2ccc3c(c2)sc2nc(-c4ccc(C)cc4C)cn23)C1 (stereo unspecified),,inactive: -13.8%
COc1ccccc1[C@H]1C(c2cccc(Cl)c2)=NN(c2ccccc2)[C@@H]1CO,"inconclusive: 28.2 µM [inhibitor, single point]",
Cc1cccc(N2CCN(C(=O)COc3cccc4c3OC(C)(C)C4)CC2)c1C,"inconclusive: 0.794 µM [inhibitor, partial curve, poor fit]",
COc1ccc(S(=O)(=O)N2CCc3ccccc32)cc1C(=O)Nc1cccnc1,,inactive: -4.44%
COc1cc(NC(=O)CSc2nc(-c3ccc(C(C)C)cc3)no2)cc(OC)c1,"inconclusive: 0.708 µM [inhibitor, single point]",
CCOc1ccc(C(Nc2cccnc2)c2cc(Cl)c3cccnc3c2O)cc1 (stereo unspecified),,inactive: -20.5%
Cc1cc(Cl)c2oc(C(=O)N(C)CCc3cnn(C)c3)c(C)c2c1,,inactive: -2.98%
Cc1ccc(/C(O)=C2\C(=O)C(=O)N(c3cc(C)on3)C2c2cccc(Br)c2)cc1 (stereo unspecified),,inactive: 1.79%
Cc1cc(=O)oc(C)c1C(=O)Nc1cccc(F)c1,"inconclusive: 7.08 µM [inhibitor, single point]",
COc1cc2c(cc1NC(=O)CCCN1C(=O)CCC1=O)oc1ccccc12,"inconclusive: 39.8 µM [inhibitor, single point]",

# 3 compounds picked at random from those above:
Compound,Potency,"activity change, negative = inhibition"
CCOC(=O)C1CCCN(C(=O)c2ccc3c(c2)sc2nc(-c4ccc(C)cc4C)cn23)C1 (stereo unspecified),,inactive: -13.8%
COc1ccc(-c2cn3c(C)c(C(=O)N4CCc5ccccc5C4)sc3n2)cc1,"inconclusive: 3.55 µM [inhibitor, partial curve]",
COc1ccc(Nc2nc(-c3ccccc3)c3ccccc3n2)cc1,"inconclusive: 39.8 µM [inhibitor, single point]",
